Data from article doi:10.1101/163188.
The exact form of at least one protein or probe is not confirmed.

Tested on: WYL (Thermotoga elfii (Pseudothermotoga elfii))
Assay: EMSA
Conditions: 50 nM protein

## TTTTTTTTTTTTTTTTTTTTTTTTTTTTTTTTTTTTTTTTTTTTTTTTTT [poly(dT) 50mer]
  binding result: binds
